Source: PMC9166712, “Fluorescent probes for monitoring myeloperoxidase-derived hypochlorous acid: a comparative study” (Scientific Reports, 2022)
Some entries repeat one wording, which the source may state once for all of them.

Legend:
[1] = Effect of DMSO on HOCl-induced probe oxidation; assay type: physicochemical; conditions: 20 µM probe, 10 µM HOCl; for effect of DMSO on the fluorescence signal: 0.05% v/v (7 mM) DMSO
Description: DMSO is a solvent well tolerated by cells and it is often used to dissolve organic compounds intended for cell culture studies. Most chemical libraries for HTS applications use DMSO as the solvent. However, DMSO reacts directly with HOCl with a second-order rate constant of 350 ± 40 M^−1s^−1 and it has been shown that it may interfere with oxidation of boronate probes by HOCl[49]. Thus, the influence of DMSO additive on the observed fluorescence signal generated in the reaction between HOCl and the studied probes was evaluated. In this experiment, the incubation mixtures contained the chosen probe (20 µM), phosphate buffer (50 mM, pH 7.4), and DMSO in the amounts between 0–5% v/v (0–0.7 M). The reaction with HOCl was initiated by the bolus addition of 1 mM sodium hypochlorite to obtain the final HOCl concentration of 10 µM. In the case of NBD-TM that reacts rapidly and stoichiometrically (1:1 ratio) with HOCl[44] about 10 µM of NBD-TSO was formed (Fig. 6). […] The presence of 0.5% v/v (0.07 M) or higher concentrations of DMSO was sufficient to completely scavenge HOCl and block the fluorescence increase.
Incubation mixtures contained 20 µM of a probe, 10 µM HOCl, 0–5% v/v (0–0.7 M) DMSO, and 50 mM phosphate buffer (pH 7.4). (Representative result of three independent experiments is shown. Points represent means ± S.D.)

[2] = Detection limits of the probes for HOCl; conditions: 3.3σ/s from fluorescence titration with HOCl

7-(p-aminophenyl)-coumarin [APC]
effect of DMSO on the fluorescence signal [1]: strong inhibition of the fluorescence signal
LOD (detection limit for HOCl) [2]: 1.85 nM

Nc1ccc(Oc2ccc3c(-c4ccccc4C(=O)O)c4ccc(=O)cc-4oc3c2)cc1 [APF, 3’-(p-aminophenyl)-fluorescein]
effect of DMSO on the fluorescence signal [1]: strong inhibition of the fluorescence signal
LOD (detection limit for HOCl) [2]: 0.23 nM

O=c1ccc2ccc(B(O)O)cc2o1 [CBA, coumarin boronic acid]
effect of DMSO on the fluorescence signal [1]: strong inhibition of the fluorescence signal
LOD (detection limit for HOCl) [2]: 1.46 nM

O=C(O)c1ccccc1-c1c2ccc(=O)cc-2oc2cc(B(O)O)ccc12 [FLBA, fluorescein boronic acid]
effect of DMSO on the fluorescence signal [1]: strong inhibition of the fluorescence signal
LOD (detection limit for HOCl) [2]: 6.11 nM

O=[N+]([O-])c1ccc(N2CCSCC2)c2nonc12 [NBD-TM, 4-thiomorpholino-7-nitrobenz-2-oxa-1,3-diazole]
effect of DMSO on HOCl-induced oxidation of the probe ([1]; 0.05% (7 mM) or 0.1% v/v (14 mM) DMSO): negligible effect
LOD (detection limit for HOCl) [2]: 99.65 nM
